{"source": "paper PMC11760013", "key": {"[1]": {"target": "T1, cleavage-resistant mNLRP1b S984A, N-terminal Flag tag (mouse) (UniProt Q2LKW6)", "T1 sequence": "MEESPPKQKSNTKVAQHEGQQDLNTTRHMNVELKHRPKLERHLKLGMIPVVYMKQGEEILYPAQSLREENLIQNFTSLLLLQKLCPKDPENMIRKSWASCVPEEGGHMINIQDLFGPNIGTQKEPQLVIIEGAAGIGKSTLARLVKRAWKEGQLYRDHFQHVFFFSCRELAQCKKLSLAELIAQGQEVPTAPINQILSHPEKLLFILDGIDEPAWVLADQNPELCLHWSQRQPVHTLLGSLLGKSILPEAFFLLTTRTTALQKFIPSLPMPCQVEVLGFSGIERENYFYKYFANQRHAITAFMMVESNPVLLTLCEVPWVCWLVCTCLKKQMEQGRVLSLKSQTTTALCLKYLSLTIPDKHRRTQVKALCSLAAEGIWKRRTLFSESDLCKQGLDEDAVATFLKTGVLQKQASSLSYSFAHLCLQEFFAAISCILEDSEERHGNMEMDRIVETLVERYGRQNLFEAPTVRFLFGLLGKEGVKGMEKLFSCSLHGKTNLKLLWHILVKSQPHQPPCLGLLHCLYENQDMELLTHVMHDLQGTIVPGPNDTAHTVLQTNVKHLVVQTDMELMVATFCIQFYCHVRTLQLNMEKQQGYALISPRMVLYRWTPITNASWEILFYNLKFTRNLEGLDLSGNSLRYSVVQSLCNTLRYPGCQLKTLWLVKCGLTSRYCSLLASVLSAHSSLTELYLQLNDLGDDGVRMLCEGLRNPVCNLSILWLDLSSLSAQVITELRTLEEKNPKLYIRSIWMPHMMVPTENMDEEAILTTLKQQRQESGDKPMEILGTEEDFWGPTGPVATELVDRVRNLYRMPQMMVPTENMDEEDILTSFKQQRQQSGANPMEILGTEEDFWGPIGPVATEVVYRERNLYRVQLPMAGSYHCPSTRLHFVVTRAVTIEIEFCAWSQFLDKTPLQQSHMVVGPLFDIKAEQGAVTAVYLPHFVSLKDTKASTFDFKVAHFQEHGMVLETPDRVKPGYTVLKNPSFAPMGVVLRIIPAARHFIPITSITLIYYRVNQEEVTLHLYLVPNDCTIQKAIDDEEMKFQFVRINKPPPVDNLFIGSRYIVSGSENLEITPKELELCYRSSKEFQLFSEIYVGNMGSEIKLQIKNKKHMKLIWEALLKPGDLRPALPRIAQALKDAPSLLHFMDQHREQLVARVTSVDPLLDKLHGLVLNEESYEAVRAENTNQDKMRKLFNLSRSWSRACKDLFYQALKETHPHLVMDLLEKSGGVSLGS", "assay": "co-IP; HEK293T co-transfected, lysed 48 h later in 50 mM Tris-HCl pH 7.4, 150 mM NaCl, 1% NP-40, 1 mM EDTA, 10% glycerol; IP with anti-Flag M2 agarose 4 h at 4 °C; immunoblot; the NT-CT pairs also in DPP8/9 double-knockout HEK293T (binding unaffected)"}, "[2]": {"target": "T2, Linker3 of mNLRP1b (HEK293T construct) (mouse) (UniProt Q2LKW6)", "T2 sequence": "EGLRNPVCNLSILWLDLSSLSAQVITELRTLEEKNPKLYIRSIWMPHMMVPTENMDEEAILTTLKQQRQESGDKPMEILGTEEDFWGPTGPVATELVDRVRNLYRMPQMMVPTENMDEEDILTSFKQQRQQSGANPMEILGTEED", "assay": "co-IP; HEK293T co-transfected, lysed 48 h later in 50 mM Tris-HCl pH 7.4, 150 mM NaCl, 1% NP-40, 1 mM EDTA, 10% glycerol; IP with anti-Flag M2 agarose 4 h at 4 °C; immunoblot; the NT-CT pairs also in DPP8/9 double-knockout HEK293T (binding unaffected)"}}, "note": "No constants are given. Whether binding was seen depends on the method and setting. In cells and extracts the contact can be indirect. Binding calls can cover weak binding; strength is not graded here. For some assays here: Sequences can lack the tags named with a protein."}
{"substance": "mNLRP1b^CT, C-terminal HA tag (mouse) (domain or fragment)", "values": [{"measurement": "binding", "setting": "[1]", "value": "binds"}, {"measurement": "binding", "setting": "[2]", "value": "binds"}]}
